Data as given in PubChem BioAssay AID2685 (National Center for Advancing Translational Sciences (NCATS), 2010).
Some of the results follow. These are further read-outs of the screen, such as a control signal, another cell line or another target. No call is given for them. The list favours compounds with an active or inconclusive main result. The note in brackets gives the kind of curve behind each potency; many fits are weak.

Assay: qHTS Assay for Lipid Storage Modulators in Drosophila S3 Cells;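 as to cell number change: cells counted by Cell Tracker Red CMTPX staining in the red channel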
Conditions: BODIPY lipid droplet fluorescence, 18-24 h; for cell number change: measured here: cell count max response, cells fed with added oleic acid
Procedure, shortened: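 Drosophila S3 cells loaded with oleic acid (400 uM, as added) and compounds at several concentrations; lipid droplets imaged by 488-nm laser-scanning cytometry, 500–530 nm intensity and object ratio to cell channel. Percent activity normalized to 20 uM Triacsin C.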

[1] = measured here: lipid fluorescence (Fed channel) AC50, cells fed with added oleic acid
[2] = measured here: cell number channel AC50, cells fed with added oleic acid

Compound | cell number change [%] | AC50 [1] | AC50 [2]
COc1ccc(CNC(=O)c2cccnc2)cc1 | 9.34 | 29.1 µM [rising, single point] | 
CCOC(=O)c1c(NC(=O)CSC(=S)N(C)C)sc(C)c1C | 16.8 | 2.59 µM [rising, partial curve] | 
C=CCNC(=O)c1c(CS(=O)(=O)c2ccccc2)noc1C(=O)NCc1ccccc1 | -41.1 | 6.51 µM [falling, single point] | 18.4 µM [falling, single point]
CCOC(=O)c1cc(CC)sc1NC(=O)CC1SC(N)=NC1=O (stereo not drawn) | -1.02 |  | 
CCOc1cccc2cc(C(=O)NCc3ccccc3Cl)c(=O)oc12 | 8.42 |  | 
CC(C)OC(=O)Nc1ccc2c(c1)N(C(=O)CCN1CCN(CCO)CC1)c1ccccc1CC2 | 23.9 | 32.6 µM [rising, partial curve] | 
CCN(CC)S(=O)(=O)c1cc(NC(=O)C(=O)c2c(-c3ccccc3)cc3ccccn23)ccc1C | 43.7 |  | 2.06 µM [rising, full curve]
CNC(=O)/C(C#N)=C/c1ccc(-c2ccc(Cl)cc2)o1 | 7.52 | 6.51 µM [falling, single point] | 6.51 µM [falling, single point]
COC(=O)c1ccc(COc2ccc(/C=N/NC(=O)C(=O)Nc3ccc(OC)cc3)cc2OC)o1 | 16.6 |  | 
COC(=O)c1c(C)nn(-c2ccccc2)c1-n1cccc1 | -5.24 | 0.58 µM [rising, single point] | 
Cc1ccc(-c2noc(CN3CCN(Cc4ccccc4)CC3)n2)cc1 | -31.1 | 29.1 µM [falling, single point] | 29.1 µM [falling, single point]
CCCC1=Nc2cc(C(=O)NCCCOC(C)C)ccc2Sc2ccccc21 | 46.2 |  | 4.11 µM [rising, full curve]
Cc1ccc(CN2CCN(c3ncccn3)CC2)o1 | 2.1 | 3.66 µM [rising, single point] | 
Cc1cc(/C=N/n2cnnc2)c(C)n1-c1ccc2c(c1)OCO2 | -33.4 | 29.1 µM [rising, single point] | 32.6 µM [falling, single point]
O=c1[nH]cc(S(=O)(=O)Nc2ccc3c(c2)OCO3)c(=O)[nH]1 | 7 |  | 
Cc1nc2c(cc1C#N)C(=O)c1ccccc1-2 | -83.3 | 29.1 µM [falling, single point] | 29.1 µM [falling, single point]
CC(C)=NNc1nc(-c2ccccc2)cs1 | -11.6 |  | 0.13 µM [falling, full curve, poor fit]
CC(C)OC(=O)CCCCCN1C(=O)CSC1=S | -2.07 |  | 1.3 µM [falling, partial curve]
CCCNS(=O)(=O)c1ccc(OCC(=O)NCC2CCCO2)cc1 (stereo not drawn) | -1.68 |  | 
Cc1ccc(NC(=O)C(C)OC(=O)/C=C/c2ccccc2)cc1 (stereo not drawn) | 2.66 | 18.4 µM [rising, single point] | 
CC(C)Cn1c(CCC(N)=O)nnc1SC(C)C(=O)Nc1ccc2c(c1)OCO2 (stereo not drawn) | 20.6 | 6.51 µM [rising, single point] | 

Compound | cell number change [%] | AC50 [1] | AC50 [2]
O=C(NCc1ccccc1C(F)(F)F)C1CCC(=O)N(C2CC2)C1 (stereo not drawn) | 19.8 | 29.1 µM [rising, single point] | 
CCOc1cc(CNc2ccc(S(N)(=O)=O)cc2)cc(Cl)c1OC | 27.8 | 13 µM [rising, partial curve] | 
CC(C)CSc1nc2ccccc2c(=O)[nH]1 |  | 2.06 µM [falling, partial curve] | 2.06 µM [falling, partial curve]
COc1ccc(C(=O)NC(=S)N2CC(C)OC(C)C2)cc1 (stereo not drawn) | -20.9 | 23.1 µM [rising, single point] | 
Cc1ccc(C(C)n2cc(C(=O)NCc3ccccn3)nn2)cc1 (stereo not drawn) |  | 0.231 µM [rising, full curve, poor fit] | 
Cc1ccc(-n2nnnc2SCC(=O)NCC2CCCO2)cc1C (stereo not drawn) | 36.5 |  | 9.2 µM [rising, single point]
COc1cc(OC)c(-c2nn3c(C4CCCCC4)nnc3s2)cc1OC |  | 0.13 µM [rising, full curve, poor fit] | 1.16 µM [rising, partial curve]
CC(=O)c1c(C)[nH]c(C(=O)Nc2cccc3ccccc23)c1C | -3.91 |  | 
COc1ccccc1NS(=O)(=O)c1ccc(C)c(NC(=O)c2ccc(S(=O)(=O)N3CCCCCC3)cc2)c1 | -33.5 | 13 µM [rising, partial curve, poor fit] | 29.1 µM [falling, single point]
O=C(NC1CCN(C(=S)Nc2ccc(F)cc2)CC1)C1CCCCC1 | 4.44 | 2.06 µM [rising, partial curve, poor fit] | 
CCNC(=S)NNC(=O)c1csc2c1CCCC2 | -17.9 |  | 0.231 µM [falling, full curve, poor fit]
CN(C)CCNc1cc(-c2ccncc2)nc2ccccc12 | 8.73 |  | 
CCCCCCCCCCSc1n[nH]c(N)n1 | 23.8 | 0.0291 µM [rising, full curve] | 
CC(=O)Nc1ccc(NC(=O)C2CCN(C(=O)c3cccs3)CC2)cc1 | 0.545 | 29.1 µM [rising, single point] | 
COc1ccc(OC)c(S(=O)(=O)N2CCC(C(=O)Nc3cc(C)ccc3C)CC2)c1 | 19.2 |  | 
O=C(CN1C(=O)NC2(CCCCC2)C1=O)Nc1ccc2[nH]c(=O)[nH]c2c1 | -13.8 | 0.092 µM [falling, full curve, poor fit] | 6.51 µM [falling, single point]
O=C(O)CSCC(=O)N1CCN(S(=O)(=O)c2cc(Cl)cc(Cl)c2)CC1 | 1.9 | 0.13 µM [falling, full curve] | 
COc1cc(C(=O)NNC(=O)c2ccccc2OCc2c(C)noc2C)cc(OC)c1OC | 31.7 |  | 29.1 µM [rising, single point]
NNC(=O)CNC(c1ccccc1)c1cc(Br)ccc1NC(=O)CCN1CCOCC1 (stereo not drawn) | -15.8 |  | 0.206 µM [falling, full curve, poor fit]
CCOC(=O)c1c(NC(=O)c2c(Br)cnn2C)c(C#N)nn1-c1ccccc1 | -1.53 | 2.91 µM [falling, partial curve, poor fit] | 
Cc1ccc(SCC(=O)N(Cc2nc(-c3ccccc3)no2)C(C)C)cc1 | 16 |  | 

Compound | cell number change [%] | AC50 [1] | AC50 [2]
Cc1ccccc1/C=N/n1c(-c2ccccn2)n[nH]c1=S | -8.39 | 0.731 µM [falling, full curve, poor fit] | 
CCCCN(Cc1ccccc1)C(=O)C1CCC(=O)N(CCc2ccccn2)C1 (stereo not drawn) |  | 29.1 µM [rising, partial curve, poor fit] | 
Cc1ccc(NC(=O)COC(=O)c2cc(=O)c3cc(F)ccc3o2)cc1 | 3.5 |  | 
CCCCCCCCCC(=O)NNC(=O)c1c(O)c2ccccc2n(CCC)c1=O | 15.3 | 0.259 µM [rising, full curve, poor fit] | 
CC(=O)Nc1cccc(OC(=O)N2CCOCC2)c1 | -4.96 | 16.4 µM [falling, single point] | 
Cc1ccccc1C(=O)NC(=S)Nc1cccc(NC(=O)C(C)C)c1 | -30.8 | 6.51 µM [falling, single point] | 
Cc1ccc(C(=O)c2ccc(N3CCN(C)CC3)c([N+](=O)[O-])c2)cc1 | -16.7 |  | 0.0291 µM [falling, full curve, poor fit]
C/C(=N/NC(=O)c1ccc(Br)o1)c1ccc(C)o1 | -3.72 | 2.91 µM [rising, partial curve] | 
COc1ccc2cc(CCOC3CCCCO3)ncc2c1 (stereo not drawn) | -8.25 | 0.517 µM [rising, full curve] | 
CC(Oc1ccccc1)C(=O)N/N=C/c1ccccn1 (stereo not drawn) | 26.4 |  | 
CC(=O)N1c2ccc(S(=O)(=O)NCCC(=O)NCCc3ccc(Cl)cc3)cc2CC1C (stereo not drawn) | 11.3 | 29.1 µM [rising, single point] | 
C=CCn1c(SCC(=O)Nc2sccc2C(N)=O)nc2sc(CC)cc2c1=O | -9.53 |  | 0.411 µM [rising, full curve]
CCCOc1ccc(N2C(=O)CC(SCC(N)C(=O)OCC)C2=O)cc1 (stereo not drawn) | -5.29 |  | 
Cc1ccc(NC(=O)N/C=C/c2ccccc2)cc1 | -20.6 | 20.6 µM [falling, single point] | 
CSc1ccc(CNC(=O)Cn2nc(C)c3c(C)n(-c4ccc(C)cc4)nc3c2=O)cc1 | -4.45 | 29.1 µM [rising, single point] | 
CC(C)OP(=O)(OC(C)C)C(Nc1ccccc1)c1cccc([N+](=O)[O-])c1 (stereo not drawn) | -11.2 | 16.4 µM [rising, partial curve, poor fit] | 
CC(C)(C)Nc1nc2nonc2nc1NC(C)(C)C | -12.9 |  | 
Cc1oc(C(C)(C)C)cc1C(=O)Nc1ccc2c(c1)OCCO2 | 35.7 |  | 32.6 µM [rising, single point]
O=c1cc(-c2cccc(F)c2)[nH]c2ccccc12 |  |  | 0.259 µM [falling, partial curve, poor fit]
CCOC(=O)N1CCN(S(=O)(=O)c2ccc(C(=O)Nc3nnc(CC)o3)cc2)CC1 | 200 | 0.092 µM [falling, full curve, poor fit] | 
COc1ccc(C(=O)c2c(C(F)(F)F)oc3c2C(=O)c2ccccc2C3=O)cc1OC | -43.1 | 2.91 µM [falling, full curve] | 4.61 µM [falling, full curve, poor fit]

A different layout for some results above:
Compound	cell number change [%]	AC50 [1]	AC50 [2]
CC(C)(C)Nc1nc2nonc2nc1NC(C)(C)C	-12.9		
Cc1oc(C(C)(C)C)cc1C(=O)Nc1ccc2c(c1)OCCO2	35.7		32.6 µM [rising, single point]
O=c1cc(-c2cccc(F)c2)[nH]c2ccccc12			0.259 µM [falling, partial curve, poor fit]
